# Experimental data reported in PubChem BioAssay AID2685 (National Center for Advancing Translational Sciences (NCATS), 2010).
# Among all 320,000 compounds or so, about 2,100 (0.66%) were called active. The inconclusive results got no clear call from the source; some entries with a clear call stand among them for comparison. Calls follow the shape of the dose curve; as a rule, active = well fitted inhibition curve with a large enough effect in the signal ratio, with a control signal flat (not every such curve was filed as active); inconclusive = small, poorly fitted or top-dose-only effect, or effect the other way, or a change in a side signal; inactive = flat fitted curve, though single readings scatter; the % refers to the signal ratio. Potencies beside an inconclusive call are fits to weak or partial responses and may not hold up.
# Assay: qHTS Assay for Lipid Storage Modulators in Drosophila S3 Cells
# Details: BODIPY lipid droplet fluorescence, 18-24 h, cells fed with added oleic acid; lipid storage change, negative = inhibition: at 46.1 µM (top of the series) unless noted
# Summary of the method: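 Drosophila S3 cells got compounds at several concentrations plus oleic acid (400 uM solution). Laser-scanning cytometry with 488 nm excitation read lipid droplets at 500-530 nm and cells at 575-640 nm. Percent activity was relative to 20 uM Triacsin C.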
# % is scaled to controls: 0 for no effect and ±100 for the full control effect; potency is read from the fitted curve at half-maximal effect.
Structure (SMILES),"lipid storage change, negative = inhibition",Potency,outcome
COCCN=c1scc(-c2cccs2)n1/N=C/c1ccc(O)c(O)c1O,inconclusive: -19.1%,,
CCC(C)c1ccc(NC(=S)N2CCN(S(C)(=O)=O)CC2)cc1 (stereo not drawn),inconclusive: 5.34%,,
COc1cccc(NC(=O)CN(C)C(=O)c2cccc(NS(=O)(=O)c3ccccc3)c2)c1,,"inconclusive: 7.31 µM [falling, single point]",
COc1ccc(NC(=O)N2CCN(S(C)(=O)=O)CC2)c(OC)c1,,"inconclusive: 29.1 µM [cytotoxic, single point]",
COc1ccc(CCNC(=O)C(=O)NCC2OCCN2S(=O)(=O)c2ccc(C)cc2)cc1 (stereo not drawn),inconclusive: -3.02%,,
CCSc1ncnc2c(C#N)c3n(c12)CCCCC3,,"inconclusive: 8.2 µM [activator, partial curve]",
Cc1ccc(N(C(=O)Cn2nnc(-c3ccc(F)cc3)n2)C(CC(C)C)C(=O)NCC2CCCO2)cc1 (stereo not drawn),inconclusive: -39.9%,,
Cc1ccc(-c2ccc(C#N)c(=O)n2CC(=O)N(C)C)cc1,inconclusive: 17%,,
COc1ccc(S(=O)(=O)N(C)C2CCS(=O)(=O)C2)cc1OC (stereo not drawn),inconclusive: 10.4%,,
COc1ccc(OC)c(C2C(C(N)=O)=C(C)Nc3nc(-c4cccc(Cl)c4)nn32)c1 (stereo not drawn),inconclusive: -75.4%,,
CC(O)C(=O)N/N=C/c1ccccc1C(=O)O (stereo not drawn),inconclusive: -9.04%,,
Cc1cccc(C)c1NS(=O)(=O)c1ccc2c(c1)NC(=O)CO2,inconclusive: -13.5%,,
Cc1ccccc1N=C1NC(=O)/C(=C/c2cccn2C)S1,inconclusive: -1.22%,,
Cc1cccn2c(=O)c(/C=C(\C#N)C(N)=O)c(N3CCN(c4cccc(Cl)c4)CC3)nc12,,"inconclusive: 29.1 µM [falling, single point]",
COc1ccc(-n2nnnc2SCC(=O)NC(=O)Nc2ccc3c(c2)OCCO3)cc1,inconclusive: 24.1%,,
COc1ccc(N=Cc2ccc[nH]2)cc1,inconclusive: -43%,,
CCOC(=O)c1c(C)c(C(=O)NCCN2CCOCC2)c(C)n1CC,inconclusive: -15.9%,,
CSc1ccccc1-c1nnc(-c2ccc(C)cc2)o1,inconclusive: -24.1%,,
Cc1ccc(NC(=O)c2ccc([N+](=O)[O-])o2)c(C)c1,inconclusive: -36.2%,,
O=C(NC1CCCC1)C(c1cccnc1)N(C(=O)c1csnn1)c1ccccc1Cl (stereo not drawn),inconclusive: 8%,,
Cc1cc(=O)c2ccccc2n1CC(=O)NCc1ccccc1,inconclusive: -74.8%,,
CCOC(=O)C1(Cc2cccc(OC)c2)CCN(Cc2ccon2)CC1,inconclusive: 0.461%,,
S=C(NCCCN1CCOCC1)NCCCN1CCOCC1,inconclusive: 4.64%,,
Cc1ccc(N(CC(N)=O)C2SC(=O)N(Cc3cccc(C(=O)O)c3)C2=O)cc1 (stereo not drawn),inconclusive: 8.66%,,
O=C(CSc1nc2scc(-c3ccccc3)c2c(=O)[nH]1)Nc1ccccc1,inconclusive: -38.2%,,
O=[N+]([O-])c1cc(S(=O)(=O)N2CCCC2)ccc1N/N=C/c1ccncc1,inconclusive: -6.55%,,

# 5 entries from above in a different format.
Structure (SMILES) | lipid storage change, negative = inhibition | Potency | outcome
Cc1ccc(NC(=O)c2ccc([N+](=O)[O-])o2)c(C)c1 | inconclusive: -36.2% |  | 
Cc1cc(=O)c2ccccc2n1CC(=O)NCc1ccccc1 | inconclusive: -74.8% |  | 
CCOC(=O)C1(Cc2cccc(OC)c2)CCN(Cc2ccon2)CC1 | inconclusive: 0.461% |  | 
Cc1ccc(N(CC(N)=O)C2SC(=O)N(Cc3cccc(C(=O)O)c3)C2=O)cc1 (stereo not drawn) | inconclusive: 8.66% |  | 
O=[N+]([O-])c1cc(S(=O)(=O)N2CCCC2)ccc1N/N=C/c1ccncc1 | inconclusive: -6.55% |  | 

# Later entries

Structure (SMILES),"lipid storage change, negative = inhibition",Potency,outcome
CCNc1ccc([N+](=O)[O-])cc1,,"inconclusive: 0.0052 µM [falling, full curve, poor fit]",
COc1ccc(C2C(C#N)=C3NC(=O)c4c(sc5c4CCCCC5)N3C3=C2C(=O)CC(C)(C)C3)cc1 (stereo not drawn),,"inconclusive: 29.1 µM [falling, single point]",
CCCCC(=O)N/N=C(\C)CC(=O)Nc1ccccc1Br,inconclusive: 4.09%,,
O=C(O)c1c2c(nc3ccccc13)/C(=C/c1ccccc1[N+](=O)[O-])CCC2,inconclusive: -44.4%,,
O=c1nc(-c2ccccc2)c2cc(Cl)ccc2[nH]1,inconclusive: 50%,,
CC(C)OC(=O)c1c(N)n(CCCN2CCOCC2)c2nc3ccccc3nc12,inconclusive: 33%,,
O=C/C(=C\Nc1ccc(Br)cc1)c1nc2ccccc2o1,inconclusive: 25.8%,,
C=CCN(CC(O)c1cccc([N+](=O)[O-])c1)C(C)CCc1ccccc1 (stereo not drawn),inconclusive: -17.7%,,
O=C(c1ccco1)[C@@H]1[C@@H]2C(=O)N(c3ccccc3)C(=O)[C@@H]2C2c3ccccc3C=CN21 (stereo partly drawn),inconclusive: 17.2%,,
CC(C)Oc1ccc2ccccc2c1C=O,inconclusive: 44.6%,,
CCCCCc1c(C)nc(Nc2nc(C)c3cc(OC)ccc3n2)[nH]c1=O,inconclusive: 26.1%,,
C=C(C)COc1ccc2c(C)c(CC(=O)N3C[C@H]4C[C@@H](C3)c3cccc(=O)n3C4)c(=O)oc2c1C,,"inconclusive: 1.3 µM [activator, full curve, poor fit]",
CCSc1ccccc1-c1nc(-c2ccncc2)no1,,"inconclusive: 14.6 µM [cytotoxic, single point]",
CCOc1ccc(S(=O)(=O)Nc2cnc3ccccc3c2)cc1,,"inconclusive: 29.1 µM [falling, single point]",
CCOC(=O)N1CCN(C(=S)NC(=O)c2cc(Br)ccc2Cl)CC1,inconclusive: 42%,,
O=C(CSc1nnc(CNC(=O)c2ccccc2F)o1)NC1CCCC1,inconclusive: 47.6%,,
Cc1cccc(/C(N)=N/OC(=O)CCC2CCCCC2)c1,,"inconclusive: 4.11 µM [activator, single point]",
CS(=O)(=O)c1ccccc1C(=O)Nc1cccc(-c2nc3ccccc3o2)c1,,active: 13 µM,
S=c1[nH]nc(Cc2ccccc2)n1Cc1ccco1,inconclusive: 38.9%,,
CCOc1cc(NC(=O)c2ccco2)c(OCC)cc1NC(=O)CCc1ccc(OC)cc1,inconclusive: -45.2%,,
Oc1ccccc1N1CCN(C(=S)NCCc2ccccc2)CC1,inconclusive: 14.4%,,
Cc1ccc(C(=O)Oc2ccc(/C=N/NC(N)=O)cc2)cc1,inconclusive: 43.3%,,
Nc1c(Cl)cc(C2=NCCn3c2c2ccc(C(F)(F)F)cc2[n+]3[O-])cc1Cl,inconclusive: -76.9%,,
COc1cc(C(=O)Nc2ccccc2N2CCOCC2)ccc1OCc1c(C)noc1C,inconclusive: -13.4%,,
CC(C)C[C@@H](CC#N)N1CCN(Cc2ccccc2)CCC1=O,,"inconclusive: 29.1 µM [activator, single point]",
CCN1C(=NCC(C)C)N[C@@H](CCc2ccccc2)[C@H](C(=O)NCC(C)C)[C@H]1C,inconclusive: 4.47%,,

Structure (SMILES),"lipid storage change, negative = inhibition",Potency,outcome
Cc1ccc(C(=O)N2CCC(C(=O)Nc3cccc([N+](=O)[O-])c3)CC2)cc1,,"inconclusive: 23.1 µM [falling, single point]",
COCCN(C(=O)COC(=O)Cc1cccc(OC)c1)c1c(N)n(CC(C)C)c(=O)[nH]c1=O,inconclusive: 11.3%,,
COc1ccc(C(=O)Nc2nccs2)cc1OC,,"inconclusive: 1.84 µM [activator, partial curve]",
O=C(Cc1ccccc1)NC1CCSc2ccccc21 (stereo not drawn),inconclusive: -4.1%,,
Cc1ccc2[nH]c3c(c2c1)CCCC3NCCO (stereo not drawn),inconclusive: -52.8%,,
O=C(O)c1ccc(-n2ccnc2)c([N+](=O)[O-])c1,,,inactive [at 46.1 µM]
Cc1cc(SCc2ccccc2)nc(=O)[nH]1,inconclusive: 13.3%,,
CC(C)(C)C(=O)CN1C(=O)C2(OCCO2)c2ccccc21,inconclusive: 19.1%,,
CN(Cc1ccccc1)C(=O)COc1cccnc1[N+](=O)[O-],inconclusive: 34%,,
CCn1c(CNC(=O)COc2ccc(C(C)C)cc2)nnc1SCC(=O)Nc1ccc(F)cc1,,"inconclusive: 4.61 µM [falling, partial curve, poor fit]",
Cc1ccc(C2NNC(=O)C2NC(=O)c2ccccc2)cc1 (stereo not drawn),inconclusive: 48%,,
NC(=O)CSc1nnc(-c2ccncc2)n1CCc1ccccc1,inconclusive: 9.6%,,
CC(Sc1ccc(Cl)cc1)C(=O)Nc1ccc(S(=O)(=O)N2CCOCC2)cc1 (stereo not drawn),,"inconclusive: 25.9 µM [falling, single point]",
CCCNS(=O)(=O)c1ccc(CCC(=O)N2CCN(c3ccc(OC)cc3)CC2)cc1,inconclusive: 233%,,
Cc1ccccc1CNC(=O)C(=O)NCC1OCCCN1S(=O)(=O)c1cccs1 (stereo not drawn),,"inconclusive: 20.6 µM [activator, single point]",
CCOC(=O)c1sc(Nc2ccccc2Cl)nc1C,inconclusive: 20.2%,,
O=c1cc(NCc2ccccc2)c2ccccc2o1,,"inconclusive: 4.11 µM [activator, full curve]",
C[C@@]1([C@@H](NC(=O)c2cccs2)c2ccc(-c3ccccc3)cc2)C[C@H]1C1CCCCC1,inconclusive: 4.72%,,
CCc1ccccc1NC(=S)N(CCN1CCOCC1)C1CCN(C(C)=O)CC1,inconclusive: -17%,,
COC(=O)CCc1ccc(O)cc1,inconclusive: 5.99%,,
Cc1ccc(/C=C/S(=O)(=O)N2CCC(C(=O)O)CC2)cc1,,"inconclusive: 2.31 µM [activator, full curve, poor fit]",
CCn1cc(C(=O)NCc2ccc(Cl)cc2)c(=O)c2cc(S(=O)(=O)N(C)C)ccc21,inconclusive: -104%,,
CCCCn1c(N)c(N(CCOC)C(=O)c2sc3ccccc3c2Cl)c(=O)[nH]c1=O,,"inconclusive: 0.13 µM [activator, full curve, poor fit]",
COc1cc(OC)c(OC)cc1CNC(=O)c1ccc(S(=O)(=O)N2CC(C)OC(C)C2)cc1 (stereo not drawn),,"inconclusive: 18.4 µM [falling, single point]",
O=C(NCc1ccccc1)C(=O)Nc1nc(-c2ccccc2)cs1,,"inconclusive: 0.0046 µM [rising, full curve, poor fit]",
O=C(COc1ccc(Br)cc1)NC1CC1,,"inconclusive: 6.51 µM [activator, single point]",
